Experimental data: PubChem BioAssay AID504793 (Drosophila RNAi Screening Center, 2011)

Purpose: 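Knock-downs allowing continued mitosis even though DNA is damaged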 (primary screen)
Cell system: Drosophila S2R+ cells
Knock-down reagent: long dsRNA against Drosophila genes, about 0.25 µg dsRNA per well
Duration: 4 days of dsRNA, then 4 hours of drug before read-out
Treatment: doxorubicin 0.5 µM for 4 hours to cause double-strand breaks, in cells also given a low, harmless dose of dsRNA against nbs to sensitise the assay
Measured: 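Mitotic index as the number of phospho-histone H3-positive cells in each well following doxorubicin, given as raw counts without normalisation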
Reading the numbers: mitotic cells: higher = more cells in mitosis, weaker G2 arrest
Call rule: 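Genes are called active only when high mitotic counts were reproduced with independent dsRNAs and mitosis was checked for delay without damage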
Calls: active = confirmed in follow-up tests; inactive = not confirmed
In all, the deposit lists about 23,000 reagents; shown is an unselected part of those with a known target gene and a result. Over the whole deposit, 62 (0.27%) got an active call. 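Calls come from follow-up tests whose scores are not deposited, so confirmed genes may have low counts here; counts are not normalised per plate.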 Raw values are not corrected between plates. Names joined by + are all predicted targets of the reagent. Reagent sequences are not shown.

target gene | dsRNA | mitotic cells, replicate 1 | outcome
CG31347 | DRSC21582 | 6 | inactive
Hsc70-4 (Heat shock protein 70 cognate 4) | DRSC16711 | 3 | inactive
Hsc70-4 (Heat shock protein 70 cognate 4) | DRSC29729 | 7 | inactive
Taf8 (TBP-associated factor 8) | DRSC20363 | 9 | inactive
E(spl)mdelta-HLH (Enhancer of split mdelta, helix-loop-helix) | DRSC16698 | 12 | inactive
ash1 (absent, small, or homeotic discs 1) | DRSC11325 | 14 | inactive
CAH2 (Carbonic anhydrase 2) | DRSC10746 | 6 | inactive
CG6126 | DRSC15971 | 5 | inactive
sqd (squid) | DRSC15160 | 4 | inactive
sqd (squid) | DRSC17066 | 15 | inactive
sqd (squid) | DRSC29779 | 12 | inactive
didum (dilute class unconventional myosin) | DRSC07603 | 5 | inactive
CG3308 | DRSC15474 | 3 | inactive
CG15547 | DRSC15085 | 8 | inactive
CG15547 | DRSC29577 | 3 | inactive
CG5021 | DRSC10469 | 6 | inactive
Sytbeta (Synaptotagmin beta) | DRSC10009 | 3 | inactive
Sytbeta (Synaptotagmin beta) | DRSC10351 | 6 | inactive
Cad89D (Cadherin 89D) | DRSC15022 | 5 | inactive
CG5254 | DRSC18611 | 17 | inactive
CG14968 | DRSC08427 | 4 | inactive
CG14968 | DRSC28793 | 7 | inactive
CG11550 | DRSC14326 | 14 | inactive
fus (fusilli) | DRSC05569 | 6 | inactive
fus (fusilli) | DRSC07107 | 8 | inactive
CG13000 | DRSC19519 | 16 | inactive
CG13000 | DRSC25279 | 4 | inactive
CG7884 | DRSC20065 | 8 | inactive
CG7884 | DRSC25412 | 6 | inactive
Ziz (Zizimin) | DRSC02506 | 4 | inactive
Ziz (Zizimin) | DRSC02976 | 6 | inactive
Cen (Centrocortin) | DRSC02704 | 7 | inactive
Tis11 (Tis11 zinc finger protein) | DRSC23110 | 19 | inactive
krimp (krimper) | DRSC06578 | 9 | inactive
CG8475 | DRSC03091 | 9 | inactive
Cyp9c1 (Cytochrome P450 9c1) | DRSC04607 | 7 | inactive
ct (cut) | DRSC18757 | 19 | inactive
ct (cut) | DRSC25100 | 8 | inactive
CG13978 | DRSC14720 | 10 | inactive
CG31559 | DRSC12172 | 6 | inactive
CG31559 | DRSC12270 | 5 | inactive
CG7744 | DRSC07036 | 6 | inactive
Cc2d2a (Coiled-coil and C2 domain containing 2A) | DRSC06750 | 4 | inactive
Cc2d2a (Coiled-coil and C2 domain containing 2A) | DRSC06779 | 7 | inactive
Cc2d2a (Coiled-coil and C2 domain containing 2A) | DRSC26325 | 9 | inactive
CG8834 | DRSC07283 | 3 | inactive
Unc-115b + p24-2 + Unc-115a | DRSC16502 | 9 | inactive
CG14367 | DRSC14829 | 4 | inactive
CG31457 | DRSC22935 | 16 | inactive
CG31457 | DRSC29229 | 4 | inactive
CG5592 | DRSC10524 | 5 | inactive
CG5828 | DRSC02900 | 8 | inactive
CG5828 | DRSC24456 | 6 | inactive
su(Hw) (suppressor of Hairy wing) | DRSC17074 | 15 | inactive
CG15712 | DRSC06583 | 10 | inactive
Prosbeta2R2 (Proteasome beta2 subunit-related 2) | DRSC12193 | 7 | inactive
east (enhanced adult sensory threshold) | DRSC18770 | 13 | inactive
east (enhanced adult sensory threshold) | DRSC23626 | 3 | inactive
SrpRalpha (Signal recognition particle receptor alpha) | DRSC20251 | 9 | inactive
coil (coilin) | DRSC07242 | 10 | inactive
coil (coilin) | DRSC26055 | 1 | inactive
y (yellow) | DRSC18853 | 10 | inactive
zf30C (zinc finger protein 30C) | DRSC03641 | 6 | inactive
Smyd4-1 (SET and MYND domain containing, class 4, member 1) | DRSC06785 | 2 | inactive
Smyd4-1 (SET and MYND domain containing, class 4, member 1) | DRSC27142 | 9 | inactive
Pgls (6-phosphogluconolactonase) | DRSC19769 | 7 | inactive
CG1701 | DRSC06641 | 1 | inactive
Dif (Dorsal-related immunity factor) | DRSC03316 | 6 | inactive
CG5131 | DRSC02817 | 3 | inactive
CG14304 | DRSC25016 | 7 | inactive
tx (retired record) | DRSC16931 | 2 | inactive
tx (retired record) | DRSC27383 | 6 | inactive
veg (retired record) | DRSC07714 | 3 | inactive
CG14632 (retired record) | DRSC17942 | 13 | inactive
CG14632 (retired record) | DRSC25845 | 3 | inactive
Plap (Phospholipase A2 activator protein) | DRSC00678 | 10 | inactive
Bin1 (Bicoid interacting protein 1) | DRSC16843 | 5 | inactive
Elp6 (Elongator complex protein 6) | DRSC16571 | 7 | inactive
CG42795 | DRSC12772 | 7 | inactive
CG42795 | DRSC15533 | 6 | inactive
CG42795 | DRSC24766 | 9 | inactive
TM9SF3 (Transmembrane 9 superfamily protein member 3) | DRSC09747 | 8 | inactive
Moca-cyp | DRSC15364 | 8 | inactive
Moca-cyp | DRSC25515 | 3 | inactive
mag (magro) | DRSC11787 | 5 | inactive
mag (magro) | DRSC25641 | 6 | inactive
Klc (Kinesin light chain) | DRSC11203 | 3 | inactive
Klc (Kinesin light chain) | DRSC26363 | 6 | inactive
CG2082 | DRSC12125 | 7 | inactive
CG2082 | DRSC26456 | 9 | inactive
CG6788 + CR32496 | DRSC22043 | 6 | inactive
eRF1 (eukaryotic translation release factor 1) | DRSC11779 | 8 | inactive
eRF1 (eukaryotic translation release factor 1) | DRSC27974 | 8 | inactive
CG9676 | DRSC20204 | 7 | inactive
rk (rickets) | DRSC03602 | 10 | inactive
CG31601 | DRSC03678 | 4 | inactive
Prestin | DRSC10507 | 11 | inactive
CG3419 (retired record) | DRSC04368 | 4 | inactive
CG3419 (retired record) | DRSC04369 | 7 | inactive
CG9636 | DRSC16529 | 3 | inactive
LManIV (Lysosomal alpha-mannosidase IV) | DRSC03222 | 5 | inactive
LManIV (Lysosomal alpha-mannosidase IV) | DRSC27811 | 5 | inactive
CG1635 | DRSC15131 | 5 | inactive
CG1635 | DRSC25487 | 7 | inactive
CG5274 | DRSC11774 | 8 | inactive
Rad17 | DRSC16811 | 5 | inactive
NAT1 | DRSC06854 | 6 | inactive
NAT1 | DRSC30053 | 3 | inactive
Uba3 (Ubiquitin-like activating enzyme 3) | DRSC06377 | 2 | inactive
CG17097 | DRSC02569 | 4 | inactive
CG17097 | DRSC24178 | 8 | inactive

Laid out differently: entries from further up.
| target gene | dsRNA | mitotic cells, replicate 1 | outcome |
| --- | --- | --- | --- |
| CG14968 | DRSC28793 | 7 | inactive |
| CG11550 | DRSC14326 | 14 | inactive |
| fus (fusilli) | DRSC05569 | 6 | inactive |
| fus (fusilli) | DRSC07107 | 8 | inactive |
| CG13000 | DRSC19519 | 16 | inactive |
| CG13000 | DRSC25279 | 4 | inactive |
| CG7884 | DRSC20065 | 8 | inactive |
| CG7884 | DRSC25412 | 6 | inactive |
| Ziz (Zizimin) | DRSC02506 | 4 | inactive |
| Ziz (Zizimin) | DRSC02976 | 6 | inactive |
| Cen (Centrocortin) | DRSC02704 | 7 | inactive |
| Tis11 (Tis11 zinc finger protein) | DRSC23110 | 19 | inactive |
| krimp (krimper) | DRSC06578 | 9 | inactive |
| CG8475 | DRSC03091 | 9 | inactive |
| Cyp9c1 (Cytochrome P450 9c1) | DRSC04607 | 7 | inactive |
| ct (cut) | DRSC18757 | 19 | inactive |
| ct (cut) | DRSC25100 | 8 | inactive |
